# Experimental data: PubChem BioAssay AID328 (DTP/NCI, 2004)
# The list does not hold the whole screen: it is rich in T/C values a quarter to a half above the control, in often repeated tests (any T/C) and in doses without a T/C. Further doses and runs are listed elsewhere. T/C gives the treated animals as a percentage of the vehicle group. Some doses have a count of surviving animals in place of a T/C: the source holds a T/C of zero for them, seemingly a mark for toxic or unscored doses. Some survivor counts are full or nearly so, which does not show that the dose was tolerated: the source hardly ever lists a survival T/C far under the control, and the zero likely stands for such cases as well. Counts of survivors are from the toxicity check (mostly the fifth day) where no day follows; animals may have died later. Schedule codes are those of the source, read here as Q, the interval in days (D) or hours (H), X, the number of doses. Some entries hold several experiments; their values stand side by side, smallest first. For survival time, this PubChem deposit counts one and a half times the control or more as active, and values a quarter to a half above the control carry no call in these data; other NCI protocols may use other cut-offs.
# Test system: BDF1 mice, P388 leukemia ip, median survival T/C
# Assay: NCI In Vivo Anticancer Drug Screen. Data for tumor model P388 Leukemia (intraperitoneal) in B6D2F1 (BDF1) mice
# Details: T/C endpoint: median survival time, higher T/C = longer survival
# Summary of the method: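 Antitumour effect was judged in vivo: survival in drug-treated mice, normalised to that of vehicle-dosed controls, gives the reported T/C.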
# [1] = dose: 50.0 mg/kg/injection, schedule: Q01DX009 (ip), vehicle: saline
smiles,measurement,setting,value
Nc1ncnc2c1ncn2C1OC(CO)C(O)C1O (configuration not stated),T/C,"dose: 22.0 mg/kg/injection, schedule: Q01DX009 (ip), vehicle: saline",125 % of control
same,survivor count,"dose: 33.0 mg/kg/injection, schedule: Q01DX009 (ip), vehicle: saline",2 of 6
same,survivor count,"dose: 34.0 mg/kg/injection, schedule: Q01DX009 (ip), vehicle: saline",2 of 6
same,T/C,"dose: 44.0 mg/kg/injection, schedule: Q01DX009 (ip), vehicle: saline with Tween-80",131 % of control
same,survivor count,[1],1 of 6 and 2 of 6
same,T/C,"dose: 67.0 mg/kg/injection, schedule: Q01DX009 (ip), vehicle: saline with Tween-80",140 % of control
same,survivor count,"dose: 75.0 mg/kg/injection, schedule: Q01DX009 (ip), vehicle: saline",0 of 6 and 1 of 6
same,T/C,"dose: 80.0 mg/kg/injection, schedule: Q01DX009 (ip), vehicle: saline with Tween-80",126 and 127 % of control
same,T/C,"dose: 100.0 mg/kg/injection, schedule: Q01DX009 (ip), vehicle: saline with Tween-80",141 % of control
same,T/C,"dose: 200.0 mg/kg/injection, schedule: Q01DX009 (ip), vehicle: saline with Tween-80","136, 137, 164, 181 % of control"
same,T/C,"dose: 264.0 mg/kg/injection, schedule: Q04DX003 (ip), vehicle: saline",136 % of control
same,T/C,"dose: 400.0 mg/kg/injection, schedule: Q01DX001 (ip), vehicle: saline with Tween-80",127 % of control
same,T/C,"dose: 400.0 mg/kg/injection, schedule: Q01DX009 (ip), vehicle: saline with Tween-80","136, 142, 172, 175, 186, 190 % of control"
same,T/C,"dose: 400.0 mg/kg/injection, schedule: Q04DX003 (ip), vehicle: saline",145 % of control
same,T/C,"dose: 600.0 mg/kg/injection, schedule: Q01DX001 (ip), vehicle: saline with Tween-80",125 % of control
same,T/C,"dose: 600.0 mg/kg/injection, schedule: Q01DX009 (ip), vehicle: saline with Tween-80","141, 154, 175, 197, 209, 229 % of control"
same,T/C,"dose: 600.0 mg/kg/injection, schedule: Q04DX003 (ip), vehicle: saline",145 % of control
CN1C(=O)N(C)C(O)(/C=C/c2c(Cl)cccc2Cl)N(C)C1=O,T/C,[1],148 % of control
same,T/C,"dose: 100.0 mg/kg/injection, schedule: Q01DX009 (ip), vehicle: saline",148 % of control
same,T/C,"dose: 200.0 mg/kg/injection, schedule: Q01DX009 (ip), vehicle: saline",125 % of control
COc1cc2c(cc1OC)C1=C(CC2)C2CCCN2CC1 (configuration not stated),survivor count,[1],5 of 6
Clc1ncnc2c1ncn2C1CCCCO1 (configuration not stated),survivor count,"dose: 200.0 mg/kg/injection, schedule: Q01DX009 (ip), vehicle: other",4 of 6
